This is one part of the list.
Columns and labels:
Assay in all cases: log2 fold change, soluble protein after heating vs DMSO (PISA); higher = thermal stabilisation; K562 lysate, 10 uM; active = over 0.2 and 3.5 SD of the protein, either way, in both replicates (recomputed)
ibrutinib = compound: C=CC(=O)N1CCC[C@@H](n2nc(-c3ccc(Oc4ccccc4)cc3)c3c(N)ncnc32)C1 [ibrutinib]
How it was run: (§1)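 Thermal stability, expressed as log-two fold change relative to solvent controls, is given from duplicates. Crude K562 extract in PBS pH 7.4 with 1 mM MgCl2, at 1 mg/mL protein, was treated with 10 μM compound for 30 min and heated in aliquots for 3 min across 48°C-58°C. After pooling, adjustment to 0.5% NP-40 at 4°C and centrifugation at 21,000xg for 90 min, supernatant protein was measured by TMTpro 16plex LC-MS/MS with channel sums equalised.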

Chains of the proteins cited; added tags and fusions are not shown. Lines headed by an entry give the natural chain unless they say otherwise; changes in a name come on top.
UniProt P40818: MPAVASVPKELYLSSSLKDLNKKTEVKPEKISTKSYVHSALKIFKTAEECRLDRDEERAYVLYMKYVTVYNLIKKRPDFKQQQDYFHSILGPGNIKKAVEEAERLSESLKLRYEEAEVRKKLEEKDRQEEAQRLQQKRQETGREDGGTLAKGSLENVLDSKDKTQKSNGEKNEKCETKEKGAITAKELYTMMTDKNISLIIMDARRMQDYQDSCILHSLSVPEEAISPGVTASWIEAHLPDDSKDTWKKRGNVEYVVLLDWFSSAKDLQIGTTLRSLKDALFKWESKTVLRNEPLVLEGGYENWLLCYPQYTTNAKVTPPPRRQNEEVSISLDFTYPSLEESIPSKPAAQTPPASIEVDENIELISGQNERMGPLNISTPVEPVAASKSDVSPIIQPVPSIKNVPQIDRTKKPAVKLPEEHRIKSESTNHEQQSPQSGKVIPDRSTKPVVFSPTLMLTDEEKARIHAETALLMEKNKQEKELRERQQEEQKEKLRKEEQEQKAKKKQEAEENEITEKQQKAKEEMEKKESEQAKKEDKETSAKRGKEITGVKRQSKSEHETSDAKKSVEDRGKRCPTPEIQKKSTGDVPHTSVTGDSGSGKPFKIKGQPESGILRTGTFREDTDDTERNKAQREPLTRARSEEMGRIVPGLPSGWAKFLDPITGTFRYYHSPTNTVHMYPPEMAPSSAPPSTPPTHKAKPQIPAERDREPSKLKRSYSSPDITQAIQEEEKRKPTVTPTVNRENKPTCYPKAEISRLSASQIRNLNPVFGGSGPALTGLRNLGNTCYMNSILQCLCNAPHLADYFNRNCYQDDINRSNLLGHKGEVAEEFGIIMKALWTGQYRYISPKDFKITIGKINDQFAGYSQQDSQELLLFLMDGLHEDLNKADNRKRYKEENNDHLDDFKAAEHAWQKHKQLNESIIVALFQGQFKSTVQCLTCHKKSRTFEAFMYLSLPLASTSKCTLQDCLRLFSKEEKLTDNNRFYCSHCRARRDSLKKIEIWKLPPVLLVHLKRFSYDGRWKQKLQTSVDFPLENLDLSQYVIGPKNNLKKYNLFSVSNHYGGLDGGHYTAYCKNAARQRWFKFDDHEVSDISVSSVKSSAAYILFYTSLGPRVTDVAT
UniProt Q8IX04: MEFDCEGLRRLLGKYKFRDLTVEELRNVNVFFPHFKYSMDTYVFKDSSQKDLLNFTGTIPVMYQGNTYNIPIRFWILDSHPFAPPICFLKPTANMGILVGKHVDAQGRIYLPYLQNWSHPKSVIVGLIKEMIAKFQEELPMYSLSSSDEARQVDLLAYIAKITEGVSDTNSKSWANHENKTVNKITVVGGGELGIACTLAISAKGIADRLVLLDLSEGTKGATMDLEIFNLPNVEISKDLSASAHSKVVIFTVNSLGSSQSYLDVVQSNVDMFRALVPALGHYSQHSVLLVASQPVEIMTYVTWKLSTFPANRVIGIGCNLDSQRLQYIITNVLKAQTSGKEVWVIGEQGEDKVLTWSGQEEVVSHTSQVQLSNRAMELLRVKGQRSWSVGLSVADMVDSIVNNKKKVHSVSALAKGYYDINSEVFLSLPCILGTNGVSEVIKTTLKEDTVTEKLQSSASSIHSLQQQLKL
UniProt Q92890: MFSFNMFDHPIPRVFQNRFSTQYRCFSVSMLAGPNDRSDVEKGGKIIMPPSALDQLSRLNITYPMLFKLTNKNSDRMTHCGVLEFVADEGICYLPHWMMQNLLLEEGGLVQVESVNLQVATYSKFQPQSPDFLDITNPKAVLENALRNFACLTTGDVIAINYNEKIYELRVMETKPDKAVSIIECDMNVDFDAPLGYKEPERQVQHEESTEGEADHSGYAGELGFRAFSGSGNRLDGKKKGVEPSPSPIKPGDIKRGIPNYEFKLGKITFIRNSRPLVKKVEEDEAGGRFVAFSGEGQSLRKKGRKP
UniProt P47985: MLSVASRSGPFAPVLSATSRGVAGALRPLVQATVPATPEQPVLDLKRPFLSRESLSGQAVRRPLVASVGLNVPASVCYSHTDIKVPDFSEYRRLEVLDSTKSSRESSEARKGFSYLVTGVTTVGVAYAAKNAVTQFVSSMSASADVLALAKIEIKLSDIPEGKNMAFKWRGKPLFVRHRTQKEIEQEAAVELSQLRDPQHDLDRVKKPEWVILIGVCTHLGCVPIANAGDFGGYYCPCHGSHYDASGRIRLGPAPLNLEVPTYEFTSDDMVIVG
UniProt Q9NUQ7: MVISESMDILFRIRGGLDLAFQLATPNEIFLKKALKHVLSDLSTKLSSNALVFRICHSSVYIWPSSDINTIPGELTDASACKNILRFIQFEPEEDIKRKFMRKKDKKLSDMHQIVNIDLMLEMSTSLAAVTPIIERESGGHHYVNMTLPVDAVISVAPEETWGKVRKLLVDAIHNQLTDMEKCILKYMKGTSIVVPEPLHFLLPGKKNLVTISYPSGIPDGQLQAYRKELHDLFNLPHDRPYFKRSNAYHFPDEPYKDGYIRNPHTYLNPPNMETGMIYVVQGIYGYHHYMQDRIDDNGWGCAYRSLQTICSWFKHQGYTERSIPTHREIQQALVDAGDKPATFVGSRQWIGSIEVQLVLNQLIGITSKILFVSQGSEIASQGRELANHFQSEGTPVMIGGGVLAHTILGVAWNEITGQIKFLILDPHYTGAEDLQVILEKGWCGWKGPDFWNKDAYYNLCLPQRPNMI
UniProt Q96RL1: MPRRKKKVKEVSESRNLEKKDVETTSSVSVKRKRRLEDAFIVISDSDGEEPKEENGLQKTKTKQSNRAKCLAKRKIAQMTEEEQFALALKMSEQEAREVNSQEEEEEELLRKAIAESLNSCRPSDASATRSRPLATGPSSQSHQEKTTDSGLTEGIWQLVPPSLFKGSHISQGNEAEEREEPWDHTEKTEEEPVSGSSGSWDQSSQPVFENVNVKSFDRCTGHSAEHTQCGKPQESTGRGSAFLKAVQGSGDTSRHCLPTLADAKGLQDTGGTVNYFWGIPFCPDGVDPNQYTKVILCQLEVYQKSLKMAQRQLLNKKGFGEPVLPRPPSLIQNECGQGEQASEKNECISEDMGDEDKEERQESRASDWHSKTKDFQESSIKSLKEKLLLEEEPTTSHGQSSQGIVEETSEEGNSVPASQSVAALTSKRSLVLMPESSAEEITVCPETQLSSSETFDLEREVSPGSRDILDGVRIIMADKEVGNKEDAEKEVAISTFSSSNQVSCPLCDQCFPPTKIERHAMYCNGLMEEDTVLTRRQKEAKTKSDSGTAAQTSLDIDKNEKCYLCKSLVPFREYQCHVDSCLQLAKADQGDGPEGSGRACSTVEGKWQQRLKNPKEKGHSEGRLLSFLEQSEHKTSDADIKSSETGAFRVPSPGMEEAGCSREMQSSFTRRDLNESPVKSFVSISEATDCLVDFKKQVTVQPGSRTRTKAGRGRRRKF
UniProt A0JNW5: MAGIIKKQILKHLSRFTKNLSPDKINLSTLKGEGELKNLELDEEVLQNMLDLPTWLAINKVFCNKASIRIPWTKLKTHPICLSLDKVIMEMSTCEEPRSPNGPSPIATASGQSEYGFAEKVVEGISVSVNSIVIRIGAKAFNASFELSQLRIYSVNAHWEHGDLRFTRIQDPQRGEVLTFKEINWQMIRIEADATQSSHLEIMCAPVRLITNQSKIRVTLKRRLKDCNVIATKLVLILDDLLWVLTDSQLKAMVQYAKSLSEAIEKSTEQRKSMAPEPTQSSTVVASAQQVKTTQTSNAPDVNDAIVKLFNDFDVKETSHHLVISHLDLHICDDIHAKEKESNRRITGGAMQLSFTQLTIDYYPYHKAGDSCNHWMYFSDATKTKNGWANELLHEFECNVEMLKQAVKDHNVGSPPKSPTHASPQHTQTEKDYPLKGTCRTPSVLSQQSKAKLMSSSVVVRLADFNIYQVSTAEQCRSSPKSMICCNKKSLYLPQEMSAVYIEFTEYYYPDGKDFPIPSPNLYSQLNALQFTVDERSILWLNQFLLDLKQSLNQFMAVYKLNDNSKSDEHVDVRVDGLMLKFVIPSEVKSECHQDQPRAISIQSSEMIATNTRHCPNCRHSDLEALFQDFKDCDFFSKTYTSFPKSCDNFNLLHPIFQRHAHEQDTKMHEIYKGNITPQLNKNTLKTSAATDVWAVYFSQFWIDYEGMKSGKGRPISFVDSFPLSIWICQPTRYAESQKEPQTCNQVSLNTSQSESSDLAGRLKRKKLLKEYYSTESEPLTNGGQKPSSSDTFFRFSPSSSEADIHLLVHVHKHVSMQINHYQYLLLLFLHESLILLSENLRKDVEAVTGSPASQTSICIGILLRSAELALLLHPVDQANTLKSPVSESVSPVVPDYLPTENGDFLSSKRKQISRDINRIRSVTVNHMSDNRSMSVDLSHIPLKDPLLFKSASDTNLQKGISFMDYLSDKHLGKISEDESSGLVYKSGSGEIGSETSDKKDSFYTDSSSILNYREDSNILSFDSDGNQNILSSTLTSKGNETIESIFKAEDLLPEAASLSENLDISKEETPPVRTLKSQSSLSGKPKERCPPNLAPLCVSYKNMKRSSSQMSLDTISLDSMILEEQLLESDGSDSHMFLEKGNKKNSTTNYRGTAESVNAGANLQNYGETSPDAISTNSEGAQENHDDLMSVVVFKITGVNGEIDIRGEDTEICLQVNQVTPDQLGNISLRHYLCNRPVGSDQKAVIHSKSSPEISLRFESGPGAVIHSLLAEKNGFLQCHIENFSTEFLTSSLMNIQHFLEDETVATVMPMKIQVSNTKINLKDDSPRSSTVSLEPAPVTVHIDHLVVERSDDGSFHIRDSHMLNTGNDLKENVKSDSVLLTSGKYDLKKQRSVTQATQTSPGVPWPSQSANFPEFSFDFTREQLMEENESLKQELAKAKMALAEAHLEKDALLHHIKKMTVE
UniProt Q9P0L0: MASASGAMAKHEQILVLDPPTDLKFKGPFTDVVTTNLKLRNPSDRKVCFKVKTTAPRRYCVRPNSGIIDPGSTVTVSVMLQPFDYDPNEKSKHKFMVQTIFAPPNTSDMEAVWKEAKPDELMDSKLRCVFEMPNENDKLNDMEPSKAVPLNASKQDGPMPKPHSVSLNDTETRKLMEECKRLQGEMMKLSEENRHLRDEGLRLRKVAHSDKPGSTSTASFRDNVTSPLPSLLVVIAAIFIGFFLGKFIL
UniProt Q14119: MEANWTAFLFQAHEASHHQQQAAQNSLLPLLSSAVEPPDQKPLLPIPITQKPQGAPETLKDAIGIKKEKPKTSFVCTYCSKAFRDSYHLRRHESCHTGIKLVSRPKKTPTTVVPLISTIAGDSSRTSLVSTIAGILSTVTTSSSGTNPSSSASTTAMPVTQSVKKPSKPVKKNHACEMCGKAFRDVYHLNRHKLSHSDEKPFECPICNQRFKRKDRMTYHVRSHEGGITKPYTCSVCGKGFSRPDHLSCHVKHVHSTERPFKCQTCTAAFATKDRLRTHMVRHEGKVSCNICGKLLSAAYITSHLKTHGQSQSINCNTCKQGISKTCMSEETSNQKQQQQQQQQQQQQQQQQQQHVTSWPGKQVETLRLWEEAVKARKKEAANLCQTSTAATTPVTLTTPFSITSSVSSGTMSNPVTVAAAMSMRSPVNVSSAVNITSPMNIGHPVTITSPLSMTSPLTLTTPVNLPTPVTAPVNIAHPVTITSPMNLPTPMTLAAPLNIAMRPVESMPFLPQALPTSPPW
UniProt Q9UKW4: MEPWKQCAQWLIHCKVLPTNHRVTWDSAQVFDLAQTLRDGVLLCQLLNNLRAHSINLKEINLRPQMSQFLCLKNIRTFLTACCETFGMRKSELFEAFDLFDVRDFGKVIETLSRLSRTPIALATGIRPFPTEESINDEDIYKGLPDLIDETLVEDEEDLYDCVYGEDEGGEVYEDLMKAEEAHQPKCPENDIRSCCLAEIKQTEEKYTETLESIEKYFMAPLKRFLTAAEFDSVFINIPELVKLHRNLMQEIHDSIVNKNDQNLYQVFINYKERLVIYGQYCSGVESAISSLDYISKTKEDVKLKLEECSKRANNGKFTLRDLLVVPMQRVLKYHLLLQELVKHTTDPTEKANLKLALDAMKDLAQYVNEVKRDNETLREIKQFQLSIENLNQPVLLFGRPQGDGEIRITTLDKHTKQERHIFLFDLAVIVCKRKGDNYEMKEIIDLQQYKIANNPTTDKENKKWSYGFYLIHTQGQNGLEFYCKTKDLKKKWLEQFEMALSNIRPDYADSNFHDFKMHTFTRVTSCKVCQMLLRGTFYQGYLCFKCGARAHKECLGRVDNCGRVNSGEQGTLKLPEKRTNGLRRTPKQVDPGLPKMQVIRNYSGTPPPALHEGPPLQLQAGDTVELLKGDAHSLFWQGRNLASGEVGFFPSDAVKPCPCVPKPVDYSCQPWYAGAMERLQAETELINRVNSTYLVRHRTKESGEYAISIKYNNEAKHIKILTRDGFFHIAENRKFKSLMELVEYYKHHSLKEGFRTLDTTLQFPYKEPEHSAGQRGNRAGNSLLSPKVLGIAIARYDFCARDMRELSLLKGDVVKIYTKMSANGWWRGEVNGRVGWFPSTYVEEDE

[1] = compound: CC(=O)c1cnc2ccc(-c3cc(Cl)c(O)c(Cl)c3)nc2c1N[C@H]1CC[C@H](CN(C)C)CC1
How it was run: as §1

ralimetinib = compound: CC(C)(C)Cn1c(N)nc2ccc(-c3[nH]c(C(C)(C)C)nc3-c3ccc(F)cc3)nc21 [ralimetinib]
How it was run: as §1

[2] = compound: CC(C)(O)CC(=O)NCCn1ccc2ncnc(Nc3ccc(Oc4cccc(C(F)(F)F)c4)c(Cl)c3)c21
How it was run: as §1

[3] = compound: CC(C)C1=C2N=C(C=C(N2N=C1)NCC3=CC=CC=C3)NCCCCCCN
How it was run: as §1

[4] = compound: CC1=C(C(CC(=O)N1)C2=CC=C(C=C2)C(F)(F)F)C(=O)NC3=C(C=C4C(=C3)C=NN4)F
How it was run: as §1

[5] = compound: CC1=C(C2=C(C=C1)C(=O)C3=CC=CC=C3N2CCCN)C
How it was run: as §1

[6] = compound: CC1=C(C=C(C=C1)NC(=O)C2=CC(=CC=C2)C(C)(C)C#N)NC3=CC4=C(C=C3)N=CN(C4=O)C
How it was run: as §1

[7] = compound: CC1=C(C=C(C=C1)NC(=O)C2=CC(=CC=C2)N(C)C)NC(=O)C3=CC=C(C=C3)O
How it was run: as §1

[8] = compound: CC1=CC=C(C=C1)SC2=C3C=C(SC3=CN=C2)C(=O)N
How it was run: as §1

vemurafenib = compound: CCCS(=O)(=O)Nc1ccc(F)c(C(=O)c2c[nH]c3ncc(-c4ccc(Cl)cc4)cc23)c1F [vemurafenib]
How it was run: as §1

[9] = compound: CCCS(=O)(=O)Nc1ccc(F)c(C(=O)c2c[nH]c3ncc(Cl)cc23)c1F
How it was run: as §1

barasertib = compound: CCN(CCCOc1ccc2c(Nc3cc(CC(=O)Nc4cccc(F)c4)[nH]n3)ncnc2c1)CCOP(=O)(O)O [barasertib]
How it was run: as §1

[10] = compound: CC[C@@H]1C(=O)N(C)c2cnc(Nc3ccc(C(=O)NC4CCN(C)CC4)cc3OC)nc2N1C1CCCC1
How it was run: as §1

volasertib = compound: CC[C@@H]1C(=O)N(C)c2cnc(Nc3ccc(C(=O)N[C@H]4CC[C@H](N5CCN(CC6CC6)CC5)CC4)cc3OC)nc2N1C(C)C [volasertib]
How it was run: as §1

[11] = compound: CCn1c(C(=O)N(C2CC2)C2CC2)cc2c3c(ncn3C)c(Nc3cc(C)n(C)n3)nc21
How it was run: as §1

[12] = compound: CCn1cc(-c2ccnc3[nH]c(-c4cccc(CN(C)C)c4)cc23)c(-c2ccc(NC(=O)N(C)C)cc2)n1
How it was run: as §1

[13] = compound: CN1CCC(CNc2ccc3ncc(-c4cccc(OC(F)(F)F)c4)n3n2)CC1
How it was run: as §1

saracatinib = compound: CN1CCN(CCOc2cc(OC3CCOCC3)c3c(Nc4c(Cl)ccc5c4OCO5)ncnc3c2)CC1 [saracatinib]
How it was run: as §1

sotrastaurin = compound: CN1CCN(c2nc(C3=C(c4c[nH]c5ccccc45)C(=O)NC3=O)c3ccccc3n2)CC1 [sotrastaurin]
How it was run: as §1

Row | Target | log2 fold change (ibrutinib) | log2 fold change [1] | log2 fold change (ralimetinib) | log2 fold change [2] | log2 fold change [3] | log2 fold change [4] | log2 fold change [5] | log2 fold change [6] | log2 fold change [7] | log2 fold change [8] | log2 fold change (vemurafenib) | log2 fold change [9] | log2 fold change (barasertib) | log2 fold change [10] | log2 fold change (volasertib) | log2 fold change [11] | log2 fold change [12] | log2 fold change [13] | log2 fold change (saracatinib) | log2 fold change (sotrastaurin)
1 | USP10 isoform 2 (UniProt Q14694) | inactive: -0.038 | inactive: 0.001 | inactive: -0.019 | inactive: -0.014 | inactive: -0.006 | inactive: -0.025 | inactive: 0.018 | inactive: 0.003 | inactive: 0.018 | inactive: 0.008 | inactive: 0.021 | inactive: 0.013 | inactive: 0.002 | inactive: -0.005 | inactive: -0.039 | inactive: 0.013 | inactive: -0.079 | inactive: 0 | inactive: 0.005 | inactive: 0.008
2 | USP9X (UniProt Q93008) | inactive: -0.003 | inactive: 0.001 | inactive: 0.025 | inactive: -0.024 | inactive: -0.032 | inactive: -0.008 | inactive: 0.009 | inactive: -0.021 | inactive: 0.043 | inactive: 0.011 | inactive: -0.013 | inactive: 0.014 | inactive: 0.038 | inactive: -0.065 | inactive: -0.053 | inactive: 0.033 | inactive: -0.042 | inactive: -0.036 | inactive: 0.03 | inactive: 0.007
3 | USP8 (UniProt P40818) | inactive: 0.048 | inactive: -0.009 | inactive: 0 | inactive: -0.014 | inactive: 0.015 | inactive: 0.004 | inactive: -0.007 | inactive: -0.001 | inactive: 0.018 | inactive: 0.009 | inactive: 0 | inactive: 0.015 | inactive: 0.001 | inactive: -0.008 | inactive: -0.05 | inactive: 0.033 | inactive: -0.002 | inactive: -0.063 | inactive: -0.006 | inactive: -0.021
4 | UEVLD (UniProt Q8IX04) | inactive: -0.016 | inactive: 0.007 | inactive: 0 | inactive: -0.094 | inactive: 0.026 | inactive: -0.059 | inactive: 0.039 | inactive: 0.023 | inactive: 0.01 | inactive: -0.016 | inactive: 0.008 | inactive: -0.033 | inactive: 0.012 | inactive: -0.007 | inactive: -0.002 | inactive: 0.044 | inactive: 0.014 | inactive: 0.042 | inactive: 0.036 | inactive: 0.004
5 | UFD1 isoform 1 (UniProt Q92890) | inactive: 0.004 | inactive: 0.01 | inactive: 0.021 | inactive: -0.003 | inactive: -0.018 | inactive: 0.008 | inactive: -0.035 | inactive: 0.049 | inactive: -0.041 | inactive: -0.027 | inactive: -0.031 | inactive: -0.001 | inactive: -0.029 | inactive: 0.112 | inactive: 0.03 | inactive: -0.019 | inactive: -0.01 | inactive: 0.025 | inactive: -0.047 | inactive: -0.018
6 | USP7 (UniProt Q93009) | inactive: -0.007 | inactive: -0.005 | inactive: 0.029 | inactive: 0.006 | inactive: -0.005 | inactive: -0.005 | inactive: 0.009 | inactive: 0 | inactive: 0.016 | inactive: 0.001 | inactive: 0.016 | inactive: 0.01 | inactive: 0.028 | inactive: -0.065 | inactive: -0.039 | inactive: 0.032 | inactive: -0.09 | inactive: 0.024 | inactive: -0.013 | inactive: 0.007
7 | VAV1 (UniProt P15498) | inactive: -0.057 | inactive: 0.054 | inactive: 0.083 | inactive: -0.042 | inactive: 0.009 | inactive: -0.004 | inactive: -0.034 | inactive: -0.078 | inactive: 0.046 | inactive: 0.082 | inactive: 0.032 | inactive: -0.017 | inactive: 0.022 | inactive: -0.041 | inactive: -0.002 | inactive: -0.041 | inactive: -0.114 | inactive: 0.035 | inactive: -0.011 | inactive: -0.021
8 | USP48 (UniProt Q86UV5) | inactive: -0.028 | inactive: -0.224 | inactive: -0.038 | inactive: 0.031 | inactive: -0.009 | inactive: 0.018 | inactive: 0 | inactive: -0.039 | inactive: 0.041 | inactive: -0.227 | inactive: 0.043 | inactive: 0.074 | inactive: -0.024 | inactive: 0.047 | inactive: -0.102 | inactive: -0.057 | active: -0.821 | inactive: 0.146 | inactive: -0.021 | inactive: -0.12
9 | UQCRFS1 (UniProt P47985) | inactive: -0.003 | inactive: -0.001 | inactive: -0.061 | inactive: -0.033 | inactive: -0.017 | inactive: -0.026 | inactive: 0.017 | inactive: -0.015 | inactive: -0.023 | inactive: -0.002 | inactive: 0.001 | inactive: 0.008 | inactive: 0.001 | inactive: 0.022 | inactive: 0.026 | inactive: -0.002 | inactive: 0.166 | inactive: -0.074 | inactive: -0.019 | inactive: -0.031
10 | UFSP2 (UniProt Q9NUQ7) | inactive: 0.004 | inactive: -0.005 | inactive: 0.023 | inactive: -0.004 | inactive: -0.023 | inactive: 0.01 | inactive: 0.005 | inactive: -0.036 | inactive: -0.003 | inactive: -0.006 | inactive: 0.074 | inactive: -0.018 | inactive: -0.019 | inactive: 0.072 | inactive: -0.071 | inactive: 0.016 | inactive: -0.011 | inactive: 0.002 | inactive: 0.036 | inactive: 0.018
11 | UIMC1 (UniProt Q96RL1) | inactive: 0.015 | inactive: -0.012 | inactive: 0.025 | inactive: 0.033 | inactive: 0.011 | inactive: 0.023 | inactive: -0.038 | inactive: -0.007 | inactive: 0.038 | inactive: -0.011 | inactive: 0.027 | inactive: 0.011 | inactive: -0.049 | inactive: 0.033 | inactive: 0.047 | inactive: 0.001 | inactive: 0.144 | inactive: -0.02 | inactive: -0.003 | inactive: 0.007
12 | UHRF1BP1L (UniProt A0JNW5) | inactive: 0.031 | inactive: 0.046 | inactive: 0.001 | inactive: -0.008 | inactive: -0.005 | inactive: 0.105 | inactive: -0.01 | inactive: 0.08 | inactive: 0.011 | inactive: -0.046 | inactive: 0.006 | inactive: 0.027 | inactive: 0.028 | inactive: 0.081 | inactive: -0.018 | inactive: -0.021 | inactive: -0.08 | inactive: -0.002 | inactive: -0.001 | inactive: 0
13 | VAPA (UniProt Q9P0L0) | inactive: -0.024 | inactive: 0.002 | inactive: -0.105 | inactive: 0.094 | inactive: 0.012 | inactive: -0.068 | inactive: 0.023 | inactive: -0.102 | inactive: 0.008 | inactive: 0.029 | inactive: -0.009 | inactive: -0.054 | inactive: 0.018 | inactive: 0.022 | inactive: -0.005 | inactive: 0.071 | inactive: 0.188 | inactive: -0.208 | inactive: -0.033 | inactive: 0.017
14 | VEZF1 (UniProt Q14119) | inactive: 0.113 | inactive: 0.01 | inactive: 0.1 | inactive: 0.048 | inactive: -0.115 | inactive: -0.102 | inactive: 0.008 | inactive: 0.166 | inactive: -0.094 | inactive: 0.036 | inactive: 0.07 | inactive: -0.118 | inactive: -0.05 | inactive: 0.112 | inactive: 0.003 | inactive: 0.025 | inactive: -0.176 | inactive: 0.039 | inactive: 0.005 | inactive: 0.025
15 | VCL (UniProt P18206) | inactive: 0.006 | inactive: -0.003 | inactive: -0.013 | inactive: -0.023 | inactive: -0.018 | inactive: -0.005 | inactive: -0.003 | inactive: 0.027 | inactive: -0.014 | inactive: -0.024 | inactive: -0.009 | inactive: -0.003 | inactive: -0.019 | inactive: -0.006 | inactive: 0.024 | inactive: -0.022 | inactive: -0.107 | inactive: 0.05 | inactive: 0.012 | inactive: -0.005
16 | VAV3 isoform 4 (UniProt Q9UKW4) | inactive: 0.068 | inactive: -0.109 | inactive: -0.049 | inactive: -0.013 | inactive: -0.028 | inactive: -0.013 | inactive: 0.085 | inactive: -0.03 | inactive: -0.026 | inactive: 0.058 | inactive: 0.059 | inactive: -0.004 | inactive: 0.049 | inactive: -0.001 | inactive: -0.017 | inactive: -0.291 | inactive: -0.512 | inactive: 0.177 | inactive: -0.15 | inactive: 0.001

Pulled one by one from the list above, two records:
Row | Target | log2 fold change (ibrutinib) | log2 fold change [1] | log2 fold change (ralimetinib) | log2 fold change [2] | log2 fold change [3] | log2 fold change [4] | log2 fold change [5] | log2 fold change [6] | log2 fold change [7] | log2 fold change [8] | log2 fold change (vemurafenib) | log2 fold change [9] | log2 fold change (barasertib) | log2 fold change [10] | log2 fold change (volasertib) | log2 fold change [11] | log2 fold change [12] | log2 fold change [13] | log2 fold change (saracatinib) | log2 fold change (sotrastaurin)
16 | VAV3 isoform 4 (UniProt Q9UKW4) | inactive: 0.068 | inactive: -0.109 | inactive: -0.049 | inactive: -0.013 | inactive: -0.028 | inactive: -0.013 | inactive: 0.085 | inactive: -0.03 | inactive: -0.026 | inactive: 0.058 | inactive: 0.059 | inactive: -0.004 | inactive: 0.049 | inactive: -0.001 | inactive: -0.017 | inactive: -0.291 | inactive: -0.512 | inactive: 0.177 | inactive: -0.15 | inactive: 0.001
9 | UQCRFS1 (UniProt P47985) | inactive: -0.003 | inactive: -0.001 | inactive: -0.061 | inactive: -0.033 | inactive: -0.017 | inactive: -0.026 | inactive: 0.017 | inactive: -0.015 | inactive: -0.023 | inactive: -0.002 | inactive: 0.001 | inactive: 0.008 | inactive: 0.001 | inactive: 0.022 | inactive: 0.026 | inactive: -0.002 | inactive: 0.166 | inactive: -0.074 | inactive: -0.019 | inactive: -0.031

Source: the supplement of paper PMC10849652
